# PubChem BioAssay AID504784, Drosophila RNAi Screening Center, 2011
# Screen: 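Search for regulators of lipid droplet storage in oleate-fed fly cells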 (primary screen)
# Cell system: Drosophila Kc167 embryonic cells
# Reagent: long dsRNA against Drosophila genes, about 250 ng dsRNA per well
# Duration: 4 days
# Treatment: cells fed 400 µM oleic acid bound to BSA
# Read-out: 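Microscope images give a droplet-to-nucleus area ratio, taken as log and converted to a screen-wide B-score; higher values mean greater lipid storage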
# Direction: droplet/nuclear area B-score: higher = more stored lipid (overstorage)
# The screen tested about 17,000 reagents; shown is a random part of those with a known target gene and a result. 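Each column is one replicate's B-score; the combined score over replicates was not deposited, so single values may mislead.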 A plus sign joins genes that one reagent is predicted to hit.
gene,DRSC id,"droplet/nuclear area B-score, replicate 1","droplet/nuclear area B-score, replicate 2","droplet/nuclear area B-score, replicate 3"
CG13014,DRSC19533,1.33,-0.00135,
CG31388,DRSC15254,-2.95,3.12,
Bcs1,DRSC02789,-0.0472,0.0139,
hkb,DRSC12377,-4.71,-2.09,2.23
CG12075,DRSC17801,-2.75,1.47,-0.108
osa,DRSC17022,0.616,2.45,
CG5089,DRSC06914,-2.34,1.95,
Polr3B,DRSC07536,2.04,0.179,
Rpt4R,DRSC10791,-2,-1.41,
Prosap,DRSC06382,-0.752,0.78,
Prosap,DRSC07081,-2.75,-0.148,
Actn,DRSC17724,0.838,,
CG15263,DRSC01974,1.95,-1.2,0.224
CG13484,DRSC10026,-0.0327,0.138,
CG11342,DRSC08175,0.887,2.38,
CG5255,DRSC15754,-0.659,-0.0192,
JYalpha,DRSC17224,-1.17,-2.98,
CG32021 (retired record),DRSC17206,-1.45,-3.07,
loopin-1,DRSC06888,0.813,0.662,
CD98hc,DRSC15453,1.65,2.18,
CR14117,DRSC10121,-0.425,-0.0213,
CG15117,DRSC06539,-0.0603,-0.0322,
CG6013,DRSC15947,-0.0853,-3.08,
Hrd3,DRSC14156,0.152,0.128,
CG5225,DRSC15742,-2.36,-0.72,
Gycbeta100B,DRSC14039,-0.264,0.723,
Gycbeta100B,DRSC14040,-0.48,-0.696,
Gycbeta100B,DRSC16691,-2.79,6.53,
CG1910,DRSC15400,-0.129,-1.37,
CG15715,DRSC10216,-0.152,-2.41,

Part of the list above, reformatted:
| gene | DRSC id | droplet/nuclear area B-score, replicate 1 | droplet/nuclear area B-score, replicate 2 | droplet/nuclear area B-score, replicate 3 |
| --- | --- | --- | --- | --- |
| CG5225 | DRSC15742 | -2.36 | -0.72 | – |
| Gycbeta100B | DRSC14039 | -0.264 | 0.723 | – |
| Gycbeta100B | DRSC14040 | -0.48 | -0.696 | – |
| Gycbeta100B | DRSC16691 | -2.79 | 6.53 | – |
| CG1910 | DRSC15400 | -0.129 | -1.37 | – |
| CG15715 | DRSC10216 | -0.152 | -2.41 | – |

Further entries follow:
gene,DRSC id,"droplet/nuclear area B-score, replicate 1","droplet/nuclear area B-score, replicate 2","droplet/nuclear area B-score, replicate 3"
CG4267,DRSC00647,0.0484,0.302,
GstO1,DRSC10688,-0.981,-0.356,
CG7988,DRSC16358,-0.447,-1.14,
CG4880,DRSC19923,1.94,1.37,
CG1812,DRSC20557,-0.882,-0.547,
CG30154,DRSC05889,-1.18,-0.528,
gdrd,DRSC10020,-0.127,0.164,
CG8642,DRSC07228,1.41,-0.454,
Mkk4,DRSC16739,-1.57,-1.32,
CG15530,DRSC15067,-1.79,0.0141,
CG15196,DRSC19643,0.225,-0.428,-1.01
Tep2,DRSC02679,0.0286,-0.371,
Tep2,DRSC03451,0.311,-0.269,
CG7430,DRSC10845,-0.529,-0.914,-0.00783
noi,DRSC12383,0.0118,0.0922,
Nepl7,DRSC02495,-0.689,0.387,-0.474
CG6012,DRSC02921,-0.807,0.171,
Cyp6a21,DRSC07381,2.68,0.0436,
park + Targ3,DRSC11617,-0.536,1.86,1.6
CG31419,DRSC15771,0.481,0.455,
fd19B,DRSC20688,-2.1,0.442,
b6,DRSC18740,-1.14,-1.27,
PCNA,DRSC07653,5.04,-3.54,
CG11768,DRSC14377,0.143,1.06,
CG11768,DRSC23219,0.344,-0.406,
CG17264,DRSC00500,-2.69,0.947,
JYalpha (retired record) + JYalpha,DRSC21700,-0.101,-0.0246,
CG33969,DRSC11777,0.488,-0.99,
stops,DRSC15095,-0.581,-0.674,
stops,DRSC15096,0.65,0.00593,
stops,DRSC15097,-0.078,2.1,
Reph,DRSC00634,1.23,-0.531,
Reph,DRSC22031,0.456,-0.615,
CG7458,DRSC11829,-0.238,0.998,1.85
CG7458,DRSC21340,-2.14,0.952,
Tim17a1,DRSC14184,0.181,0.861,
CG7457,DRSC10849,1.17,0.647,
CG6426,DRSC06985,0.569,0.376,
TTLL4B,DRSC00636,-0.639,-1.53,
Abcd3,DRSC19488,1.24,0.663,
CG15071,DRSC06504,-2.28,-1.04,
SA1,DRSC03424,-0.554,-2.67,
jing,DRSC04923,0.0414,0.109,
jing,DRSC05000,-1.21,-0.395,
Or85e (retired record),DRSC16768,-2.09,-0.919,
HmgD,DRSC04619,2.87,1.05,
Sodh2,DRSC16865,-0.111,0.0839,
TkR86C,DRSC16880,-1.04,3.4,
Had1,DRSC20216,-0.306,0.172,
CG42758,DRSC10021,1.18,-0.249,
CG16826,DRSC02527,-3.78,1.7,
SLO2,DRSC06212,0.385,2.64,
SLO2,DRSC06214,0.0844,-0.146,
SLO2,DRSC06216,0.746,0.278,
SLO2,DRSC06218,-0.372,0.144,
SLO2,DRSC06219,3.25,3.66,
SLO2,DRSC23225,-1.31,-0.655,
